# Some of these results come from one statement about several compounds together.
# B1: Met1-Val470: C-terminal deletion mutant of human MAO-B-HIS6, residues Met1-Val470 (protein, UniProt P27338 1-470, looked up, fragment)
# chain: MSNKCDVVVVGGGISGMAAAKLLHDSGLNVVVLEARDRVGGRTYTLRNQKVKYVDLGGSYVGPTQNRILRLAKELGLETYKVNEVERLIHHVKGKSYPFRGPFPPVWNPITYLDHNNFWRTMDDMGREIPSDAPWKAPLAEEWDNMTMKELLDKLCWTESAKQLATLFVNLCVTAETHEVSALWFLWYVKQCGGTTRIISTTNGGQERKFVGGSGQVSERIMDLLGDRVKLERPVIYIDQTRENVLVETLNHEMYEAKYVISAIPPTLGMKIHFNPPLPMMRNQMITRVPLGSVIKCIVYYKEPFWRKKDYCGTMIIDGEEAPVAYTLDDTKPEGNYAAIMGFILAHKARKLARLTKEERLKKLCELYAKVLGSLEALEPVHYEEKNWCEEQYSGGCYTTYFPPGILTQYGRVLRQPVDRIYFAGTETATHWSGYMEGAVEAGERAAREILHAMGKIPEDEIWQSEPESV
# modifications: His6 tag
# B2: Met1-Val418: C-terminal deletion mutant of human MAO-B-HIS6, residues Met1-Val418 (protein, UniProt P27338 1-418, looked up, fragment)
# chain: MSNKCDVVVVGGGISGMAAAKLLHDSGLNVVVLEARDRVGGRTYTLRNQKVKYVDLGGSYVGPTQNRILRLAKELGLETYKVNEVERLIHHVKGKSYPFRGPFPPVWNPITYLDHNNFWRTMDDMGREIPSDAPWKAPLAEEWDNMTMKELLDKLCWTESAKQLATLFVNLCVTAETHEVSALWFLWYVKQCGGTTRIISTTNGGQERKFVGGSGQVSERIMDLLGDRVKLERPVIYIDQTRENVLVETLNHEMYEAKYVISAIPPTLGMKIHFNPPLPMMRNQMITRVPLGSVIKCIVYYKEPFWRKKDYCGTMIIDGEEAPVAYTLDDTKPEGNYAAIMGFILAHKARKLARLTKEERLKKLCELYAKVLGSLEALEPVHYEEKNWCEEQYSGGCYTTYFPPGILTQYGRVLRQPV
# modifications: His6 tag
# System: recombinant human MAO-B
# Assay: MAO-B activity assay (reaction velocity, specific activity, Km) with 1-methyl-4-(1-methyl-2-pyrryl)-1,2,3,6-tetrahydropyridine as substrate
# Assay type: biochemical
# Conditions: substrate 1-methyl-4-(1-methyl-2-pyrryl)-1,2,3,6-tetrahydropyridine; purified C-terminal deletion mutants
# Description: The MAO-B containing solutions, including fractions isolated from chromatography columns, were assayed to measure reaction velocity. The assays were carried out in a final volume of 200 μl in 50 mM sodium phosphate, 10 mM NaCl, pH 7.5, with 0.2 mM substrate (1-methyl-4-(1-methyl-2-pyrryl)-1,2,3,6-tetrahydropyridine) as described in Flaherty, et al., J. Med. Chem., 39:4756-4761 (1996) hereby incorporated by reference. Reaction velocity was followed at an absorbence of 420 nm at 37° C. in a SpectraMax 250 96-well plate reader. Specific activity measurements were made using a Shimadzu UV-2101PC spectrophotometer equipped with a Shimadzu temperature controller (TCC-controller) set to 37° C. Protein concentrations were determined using the Bio-Rad Protein Assay kit (Bio-Rad Laboratories, Hercules, Calif.).
# Analysis of samples containing purified wild-typeMAO-B was carried out using 1-methyl-4-(1-methyl-2-pyrryl)-1,2,3,6-tetrahydropyridine as the substrate. The effect of protein concentration on activity was measured. […] The plot of MAO-B concentration vs. activity was a straight line. Variation of the substrate at a constant enzyme concentration was used to determine the Km for the substrate. […]
# The activity of samples containing the purified mutant MAO-B described in Example 1 above was also analyzed using 1-methyl-4-(1-methyl-2-pyrryl)-1,2,3,6-tetrahydropyridine as the substrate. […]
molecule,measurement,value
B1,activity relative to wild-type MAO-B activity,less than 0.1%
B2,activity relative to wild-type MAO-B activity,less than 0.1%

# From patent US20020164744A1, “Soluble, active recombinant human MAO-B” (priority 1999, published 2002)
